# PubChem BioAssay AID743448 – Peter MacCallum Cancer Centre, 2014
# Test: 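Find knock-downs giving vorinostat-specific cell death in several colon cancer lines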 (follow-up of hits)
# Cell system: four human colon cancer cell lines: HCT116-VR (vorinostat-resistant HCT116 derivative), SW480, SW620 and LIM1215
# Knock-down reagent: siRNA pool against human genes, 40 nM siRNA pool
# Timing: drug added two days after transfection, read one day later
# Treatment: vorinostat 2.5 µM on one half of each plate, etoposide 5 µM on the other half
# Read-out: 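Caspase 3/7 activity by luminescence and live-cell viability by fluorescence, each given as a ratio to mock-transfected wells and as a robust z-score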
# Scale: caspase ratio to mock: higher = more caspase activity than mock; viability ratio to mock: higher = more live cells than mock
# Hit rule: 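a row is a hit if caspase relative to mock is 1.6 or above or viability relative to mock is 0.75 or below; wells dying heavily without drug are not called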
# Meaning of the calls: active = caspase or viability hit in this panel; inactive = no change, or unhealthy well
# The whole screen tested 106 reagents; this is a random part of them. 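Calls are per line and drug panel including etoposide, not vorinostat-specific; gene picks needed hits in two or more extra lines with vorinostat versus etoposide.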 Entries without a mark were called inactive. Further read-outs or replicates are left out here.
The opening 2 records, ahead of the listing:
Gene,cell line and drug panel,caspase ratio to mock,viability ratio to mock
THAP3 (GeneID 90326),LIM1215 cells with etoposide,1.69 (active),0.84
THAP3 (GeneID 90326),LIM1215 cells with vorinostat,1.31,0.88

Main list, repeating the preview:
Gene,cell line and drug panel,caspase ratio to mock,viability ratio to mock
THAP3 (GeneID 90326),LIM1215 cells with etoposide,1.69 (active),0.84
THAP3 (GeneID 90326),LIM1215 cells with vorinostat,1.31,0.88
THAP3 (GeneID 90326),SW480 cells with etoposide,1.92 (active),0.8
THAP3 (GeneID 90326),SW480 cells with vorinostat,1.26,0.76
THAP3 (GeneID 90326),SW620 cells with etoposide,1.5,0.84
THAP3 (GeneID 90326),SW620 cells with vorinostat,1.42,0.85
THAP3 (GeneID 90326),vorinostat-resistant HCT116 cells with etoposide,1.67 (active),0.87
THAP3 (GeneID 90326),vorinostat-resistant HCT116 cells with vorinostat,1.57,0.84
SAP130 (GeneID 79595),LIM1215 cells with etoposide,1.34,0.88
SAP130 (GeneID 79595),LIM1215 cells with vorinostat,2.32 (active),0.81
SAP130 (GeneID 79595),SW480 cells with etoposide,1.72 (active),1.04
SAP130 (GeneID 79595),SW480 cells with vorinostat,2.08 (active),0.92
SAP130 (GeneID 79595),SW620 cells with etoposide,0.76,0.95
SAP130 (GeneID 79595),SW620 cells with vorinostat,1.2,0.97
SAP130 (GeneID 79595),vorinostat-resistant HCT116 cells with etoposide,1.24,0.99
SAP130 (GeneID 79595),vorinostat-resistant HCT116 cells with vorinostat,2.79 (active),0.9
PUF60 (GeneID 22827),LIM1215 cells with etoposide,3.27 (active),1
PUF60 (GeneID 22827),LIM1215 cells with vorinostat,3.22 (active),0.8
PUF60 (GeneID 22827),SW480 cells with etoposide,4.29 (active),1.01
PUF60 (GeneID 22827),SW480 cells with vorinostat,2.58 (active),0.87
PUF60 (GeneID 22827),SW620 cells with etoposide,1.22,0.87
PUF60 (GeneID 22827),SW620 cells with vorinostat,1.31,0.83
PUF60 (GeneID 22827),vorinostat-resistant HCT116 cells with etoposide,4.21 (active),0.97
PUF60 (GeneID 22827),vorinostat-resistant HCT116 cells with vorinostat,4.86 (active),0.81
NPEPPS (GeneID 9520),LIM1215 cells with etoposide,1.77 (active),0.62
NPEPPS (GeneID 9520),LIM1215 cells with vorinostat,1.4 (active),0.55
NPEPPS (GeneID 9520),SW480 cells with etoposide,1.25 (active),0.72
NPEPPS (GeneID 9520),SW480 cells with vorinostat,0.98 (active),0.71
NPEPPS (GeneID 9520),SW620 cells with etoposide,0.78 (active),0.7
NPEPPS (GeneID 9520),SW620 cells with vorinostat,0.82 (active),0.57
NPEPPS (GeneID 9520),vorinostat-resistant HCT116 cells with etoposide,0.97 (active),0.56
NPEPPS (GeneID 9520),vorinostat-resistant HCT116 cells with vorinostat,0.77 (active),0.48
EIF2S1 (GeneID 1965),LIM1215 cells with etoposide,2.18 (active),0.55
EIF2S1 (GeneID 1965),LIM1215 cells with vorinostat,1.98 (active),0.69
EIF2S1 (GeneID 1965),SW480 cells with etoposide,1.54 (active),0.7
EIF2S1 (GeneID 1965),SW480 cells with vorinostat,1.25,0.77
EIF2S1 (GeneID 1965),SW620 cells with etoposide,0.8 (active),0.62
EIF2S1 (GeneID 1965),SW620 cells with vorinostat,0.94,0.86
EIF2S1 (GeneID 1965),vorinostat-resistant HCT116 cells with etoposide,0.93 (active),0.57
EIF2S1 (GeneID 1965),vorinostat-resistant HCT116 cells with vorinostat,1.31 (active),0.72
